According to PMC9654362:

Target: 3xFlag-FTH1 (ferritin heavy chain, H Ferritin subunit) (human) (UniProt P02794)
Assay: affinity purification with mass spectrometry; 3xFlag-FTH1 immunoprecipitated from HEK-293T lysate on anti-FLAG M2 magnetic beads after pre-clearing on Protein G Dynabeads; washes with 150 and 300 mM NaCl in lysis buffer; elution with 3xFLAG peptide; SDS-PAGE, in situ trypsin digestion, nanoLC-MS/MS; empty vector as control

Row | binding | Binder
1 | binds | Peroxiredoxin 6 (PRDX6), endogenous in HEK-293T (enzyme, UniProt P30041 1-224) MPGGLLLGDVAPNFEANTTVGRIRFHDFLGDSWGILFSHPRDFTPVCTTELGRAAKLAPEFAKRNVKLIALSIDSVEDHLAWSKDINAYNCEEPTEKLPFPIIDDRNRELAILLGMLDPAEKDEKGMPVTARVVFVFGPDKKLKLSILYPATTGRNFDEILRVVISLQLTAEKRVATPVDWKDGDSVMVLPTIPEEEAKKLFPKGVFTKELPSGKKYLRYTPQP
2 | binds | CDKAL1 (enzyme, UniProt Q5VV42 1-579) MPSASCDTLLDDIEDIVSQEDSKPQDRHFVRKDVVPKVRRRNTQKYLQEEENSPPSDSTIPGIQKIWIRTWGCSHNNSDGEYMAGQLAAYGYKITENASDADLWLLNSCTVKNPAEDHFRNSIKKAQEENKKIVLAGCVPQAQPRQDYLKGLSIIGVQQIDRVVEVVEETIKGHSVRLLGQKKDNGRRLGGARLDLPKIRKNPLIEIISINTGCLNACTYCKTKHARGNLASYPIDELVDRAKQSFQEGVCEIWLTSEDTGAYGRDIGTNLPTLLWKLVEVIPEGAMLRLGMTNPPYILEHLEEMAKILNHPRVYAFLHIPVQSASDSVLMEMKREYCVADFKRVVDFLKEKVPGITIATDIICGFPGETDQDFQETVKLVEEYKFPSLFINQFYPRPGTPAAKMEQVPAQVKKQRTKDLSRVFHSYSPYDHKIGERQQVLVTEESFDSKFYVAHNQFYEQVLVPKNPAFMGKMVEVDIYESGKHFMKGQPVSDAKVYTPSISKPLAKGEVSGLTKDFRNGLGNQLSSGSHTSAASQCDSASSRMVLPMPRLHQDCALRMSVGLALLGLLFAFFVKVYN

Results are given in words; binding and its absence hold for the method and conditions named. Binding seen in cells or lysates may run through a third protein. A yes stands for co-enrichment or nearness to the bait. Other partners may have been found.
